Test results taken from the supplement of paper PMC10849652.
Some of the results follow.

Protein sequences, listed by entry. Tags and fused reporters are not part of them. Lines headed by an entry give the natural chain unless they say otherwise; changes in a name come on top.
UniProt Q13435: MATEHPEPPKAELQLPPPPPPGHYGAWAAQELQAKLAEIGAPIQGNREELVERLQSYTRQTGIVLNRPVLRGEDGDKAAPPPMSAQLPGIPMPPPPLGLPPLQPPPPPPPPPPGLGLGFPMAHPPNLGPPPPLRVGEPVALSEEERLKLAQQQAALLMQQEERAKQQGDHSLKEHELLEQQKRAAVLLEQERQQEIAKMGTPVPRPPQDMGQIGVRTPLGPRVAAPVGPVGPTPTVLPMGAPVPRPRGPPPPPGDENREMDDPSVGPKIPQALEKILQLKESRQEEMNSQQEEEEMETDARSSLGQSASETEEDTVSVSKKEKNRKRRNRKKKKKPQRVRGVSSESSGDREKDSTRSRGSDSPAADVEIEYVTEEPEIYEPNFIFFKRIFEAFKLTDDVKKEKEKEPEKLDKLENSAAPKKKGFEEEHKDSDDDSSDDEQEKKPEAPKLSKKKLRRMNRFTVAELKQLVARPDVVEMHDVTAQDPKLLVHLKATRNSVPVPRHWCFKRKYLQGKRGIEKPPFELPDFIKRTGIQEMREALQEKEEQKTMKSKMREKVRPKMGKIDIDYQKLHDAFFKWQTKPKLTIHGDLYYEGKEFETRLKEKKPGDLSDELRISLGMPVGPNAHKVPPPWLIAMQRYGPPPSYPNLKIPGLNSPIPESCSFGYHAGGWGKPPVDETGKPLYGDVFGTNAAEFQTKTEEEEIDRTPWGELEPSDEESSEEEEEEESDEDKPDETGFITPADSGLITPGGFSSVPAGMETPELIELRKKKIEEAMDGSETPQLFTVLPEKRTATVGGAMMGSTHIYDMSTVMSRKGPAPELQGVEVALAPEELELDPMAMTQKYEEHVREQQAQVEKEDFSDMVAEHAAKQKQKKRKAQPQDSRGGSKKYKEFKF
UniProt Q99720, whole entry, looked up: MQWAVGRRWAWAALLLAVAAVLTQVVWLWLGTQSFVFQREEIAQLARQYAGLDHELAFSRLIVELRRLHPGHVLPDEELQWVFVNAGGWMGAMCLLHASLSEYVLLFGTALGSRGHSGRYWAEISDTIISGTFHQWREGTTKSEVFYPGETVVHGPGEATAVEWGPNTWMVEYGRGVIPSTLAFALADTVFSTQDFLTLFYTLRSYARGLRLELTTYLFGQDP
UniProt Q13228: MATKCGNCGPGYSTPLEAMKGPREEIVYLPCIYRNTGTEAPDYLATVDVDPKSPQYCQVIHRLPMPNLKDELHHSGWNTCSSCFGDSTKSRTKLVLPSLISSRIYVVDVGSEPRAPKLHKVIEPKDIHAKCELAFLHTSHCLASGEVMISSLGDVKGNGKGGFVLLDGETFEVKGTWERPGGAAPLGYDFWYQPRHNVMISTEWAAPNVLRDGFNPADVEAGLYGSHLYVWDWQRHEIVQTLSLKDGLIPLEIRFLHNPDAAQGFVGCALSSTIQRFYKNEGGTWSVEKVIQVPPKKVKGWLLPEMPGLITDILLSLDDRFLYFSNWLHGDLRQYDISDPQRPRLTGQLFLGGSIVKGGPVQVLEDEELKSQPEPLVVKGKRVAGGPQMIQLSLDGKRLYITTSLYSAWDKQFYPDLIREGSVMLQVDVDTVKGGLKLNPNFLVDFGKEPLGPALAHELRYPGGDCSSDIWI
UniProt Q14141: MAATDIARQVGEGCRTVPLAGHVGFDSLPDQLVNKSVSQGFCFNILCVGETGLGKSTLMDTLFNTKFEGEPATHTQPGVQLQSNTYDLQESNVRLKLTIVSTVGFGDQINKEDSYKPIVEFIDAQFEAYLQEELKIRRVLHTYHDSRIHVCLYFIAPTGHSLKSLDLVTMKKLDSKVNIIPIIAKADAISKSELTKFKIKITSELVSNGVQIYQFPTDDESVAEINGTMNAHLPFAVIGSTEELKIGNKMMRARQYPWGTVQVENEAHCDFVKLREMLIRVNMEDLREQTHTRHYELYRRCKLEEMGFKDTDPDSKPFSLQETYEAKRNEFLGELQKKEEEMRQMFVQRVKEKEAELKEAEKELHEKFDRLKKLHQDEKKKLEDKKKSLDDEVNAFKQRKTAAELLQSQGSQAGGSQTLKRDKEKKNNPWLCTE
UniProt P50452: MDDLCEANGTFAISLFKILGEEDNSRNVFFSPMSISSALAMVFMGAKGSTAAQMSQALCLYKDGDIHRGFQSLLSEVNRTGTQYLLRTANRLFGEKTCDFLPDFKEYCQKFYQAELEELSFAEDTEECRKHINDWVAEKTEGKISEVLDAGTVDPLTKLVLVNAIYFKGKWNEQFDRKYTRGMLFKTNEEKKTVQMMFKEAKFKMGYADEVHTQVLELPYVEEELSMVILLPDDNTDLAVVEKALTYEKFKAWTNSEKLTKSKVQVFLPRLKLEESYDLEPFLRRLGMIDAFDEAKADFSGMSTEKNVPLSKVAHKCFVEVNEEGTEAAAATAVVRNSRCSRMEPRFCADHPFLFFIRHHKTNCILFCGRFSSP
UniProt Q96EQ0: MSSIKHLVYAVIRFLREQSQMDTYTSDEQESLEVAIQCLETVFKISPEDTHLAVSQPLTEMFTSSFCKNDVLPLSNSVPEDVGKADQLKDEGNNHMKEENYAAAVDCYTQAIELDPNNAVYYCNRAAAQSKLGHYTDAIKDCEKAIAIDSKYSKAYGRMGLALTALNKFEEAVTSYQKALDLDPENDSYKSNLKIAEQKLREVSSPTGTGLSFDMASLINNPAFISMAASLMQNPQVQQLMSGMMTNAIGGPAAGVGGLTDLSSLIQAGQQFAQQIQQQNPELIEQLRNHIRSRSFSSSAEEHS
UniProt Q99442: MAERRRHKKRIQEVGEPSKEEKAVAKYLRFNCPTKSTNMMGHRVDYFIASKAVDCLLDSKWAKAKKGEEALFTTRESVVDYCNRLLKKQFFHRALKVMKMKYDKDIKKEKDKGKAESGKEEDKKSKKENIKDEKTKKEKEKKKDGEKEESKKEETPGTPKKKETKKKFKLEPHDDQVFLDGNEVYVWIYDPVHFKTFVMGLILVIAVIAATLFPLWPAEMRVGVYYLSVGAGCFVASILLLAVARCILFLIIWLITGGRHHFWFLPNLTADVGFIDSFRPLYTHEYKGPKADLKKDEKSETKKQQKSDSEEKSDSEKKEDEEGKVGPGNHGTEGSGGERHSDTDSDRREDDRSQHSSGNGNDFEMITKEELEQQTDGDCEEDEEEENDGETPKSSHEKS
UniProt Q9H9S3, whole entry, looked up: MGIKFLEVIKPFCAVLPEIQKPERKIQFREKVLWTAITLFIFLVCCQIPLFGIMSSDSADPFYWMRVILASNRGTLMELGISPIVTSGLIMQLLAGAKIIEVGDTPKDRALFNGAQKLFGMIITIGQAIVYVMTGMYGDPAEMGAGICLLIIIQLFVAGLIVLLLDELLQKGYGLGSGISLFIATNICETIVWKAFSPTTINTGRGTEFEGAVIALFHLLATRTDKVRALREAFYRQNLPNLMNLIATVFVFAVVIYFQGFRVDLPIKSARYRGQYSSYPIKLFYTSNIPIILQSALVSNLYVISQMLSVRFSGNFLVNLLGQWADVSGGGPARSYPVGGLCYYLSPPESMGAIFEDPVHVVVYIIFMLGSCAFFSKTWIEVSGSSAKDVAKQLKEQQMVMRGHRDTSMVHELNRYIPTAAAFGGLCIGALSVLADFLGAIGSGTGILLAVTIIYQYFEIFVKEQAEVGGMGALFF
UniProt Q86VZ5: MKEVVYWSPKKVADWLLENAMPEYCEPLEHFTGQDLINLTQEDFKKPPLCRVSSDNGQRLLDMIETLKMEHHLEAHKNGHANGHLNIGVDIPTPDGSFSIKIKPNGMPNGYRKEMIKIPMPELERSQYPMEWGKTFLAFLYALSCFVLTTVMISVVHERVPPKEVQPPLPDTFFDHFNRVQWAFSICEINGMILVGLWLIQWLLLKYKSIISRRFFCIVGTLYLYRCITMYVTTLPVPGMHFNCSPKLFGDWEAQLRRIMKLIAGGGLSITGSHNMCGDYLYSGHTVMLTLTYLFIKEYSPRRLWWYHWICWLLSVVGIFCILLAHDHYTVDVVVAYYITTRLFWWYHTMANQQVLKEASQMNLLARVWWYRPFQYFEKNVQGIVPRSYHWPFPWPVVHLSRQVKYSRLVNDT
UniProt Q12872: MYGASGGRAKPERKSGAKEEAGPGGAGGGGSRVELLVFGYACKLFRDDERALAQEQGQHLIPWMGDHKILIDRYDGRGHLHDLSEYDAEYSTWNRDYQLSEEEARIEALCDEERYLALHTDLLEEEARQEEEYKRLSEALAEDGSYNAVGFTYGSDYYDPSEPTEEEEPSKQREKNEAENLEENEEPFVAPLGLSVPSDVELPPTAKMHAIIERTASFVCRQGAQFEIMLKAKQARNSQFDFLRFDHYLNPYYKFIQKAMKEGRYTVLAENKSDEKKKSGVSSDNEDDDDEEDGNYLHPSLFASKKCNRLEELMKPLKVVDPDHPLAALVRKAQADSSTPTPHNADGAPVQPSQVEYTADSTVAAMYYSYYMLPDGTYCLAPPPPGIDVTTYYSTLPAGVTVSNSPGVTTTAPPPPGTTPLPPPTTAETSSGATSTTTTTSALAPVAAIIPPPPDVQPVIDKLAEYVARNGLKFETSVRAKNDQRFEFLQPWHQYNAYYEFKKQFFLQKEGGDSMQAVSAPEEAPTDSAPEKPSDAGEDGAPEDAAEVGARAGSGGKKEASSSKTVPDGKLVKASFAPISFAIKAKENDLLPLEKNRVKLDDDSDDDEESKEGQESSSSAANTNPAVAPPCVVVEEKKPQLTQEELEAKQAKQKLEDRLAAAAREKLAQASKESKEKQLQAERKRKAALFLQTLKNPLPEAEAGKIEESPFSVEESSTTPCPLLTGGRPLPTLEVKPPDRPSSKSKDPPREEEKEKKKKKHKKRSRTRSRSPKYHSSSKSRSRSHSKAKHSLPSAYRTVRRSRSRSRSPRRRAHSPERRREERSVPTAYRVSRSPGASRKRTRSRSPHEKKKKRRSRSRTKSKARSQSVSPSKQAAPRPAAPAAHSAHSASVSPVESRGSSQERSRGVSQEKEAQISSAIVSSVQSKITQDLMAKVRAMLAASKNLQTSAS
UniProt Q16181: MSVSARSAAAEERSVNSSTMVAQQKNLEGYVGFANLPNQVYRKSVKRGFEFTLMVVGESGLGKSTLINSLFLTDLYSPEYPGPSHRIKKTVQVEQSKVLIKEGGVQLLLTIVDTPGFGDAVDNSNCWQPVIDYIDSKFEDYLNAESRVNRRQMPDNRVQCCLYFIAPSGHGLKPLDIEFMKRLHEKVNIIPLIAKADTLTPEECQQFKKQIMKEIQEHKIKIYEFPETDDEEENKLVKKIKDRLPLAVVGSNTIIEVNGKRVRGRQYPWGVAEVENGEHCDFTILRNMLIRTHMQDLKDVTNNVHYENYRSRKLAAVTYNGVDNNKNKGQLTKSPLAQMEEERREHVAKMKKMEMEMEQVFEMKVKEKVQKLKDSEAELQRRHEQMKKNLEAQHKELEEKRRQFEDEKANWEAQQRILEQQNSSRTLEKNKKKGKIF
UniProt Q9UQ13: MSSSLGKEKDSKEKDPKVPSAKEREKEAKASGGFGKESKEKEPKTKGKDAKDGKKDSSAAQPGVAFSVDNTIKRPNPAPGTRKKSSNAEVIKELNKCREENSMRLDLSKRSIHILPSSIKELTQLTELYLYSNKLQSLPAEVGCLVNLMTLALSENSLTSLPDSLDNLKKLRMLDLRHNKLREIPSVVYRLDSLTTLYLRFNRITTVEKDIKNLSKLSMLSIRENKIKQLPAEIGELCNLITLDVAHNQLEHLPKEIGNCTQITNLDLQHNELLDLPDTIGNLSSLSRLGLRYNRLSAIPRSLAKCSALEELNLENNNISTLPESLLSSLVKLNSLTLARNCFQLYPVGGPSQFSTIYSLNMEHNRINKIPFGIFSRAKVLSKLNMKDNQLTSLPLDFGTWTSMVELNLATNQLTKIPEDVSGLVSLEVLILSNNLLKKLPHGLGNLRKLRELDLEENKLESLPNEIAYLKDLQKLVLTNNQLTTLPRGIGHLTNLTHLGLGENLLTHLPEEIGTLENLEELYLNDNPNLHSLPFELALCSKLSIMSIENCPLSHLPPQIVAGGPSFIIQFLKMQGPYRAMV
UniProt Q9Y371: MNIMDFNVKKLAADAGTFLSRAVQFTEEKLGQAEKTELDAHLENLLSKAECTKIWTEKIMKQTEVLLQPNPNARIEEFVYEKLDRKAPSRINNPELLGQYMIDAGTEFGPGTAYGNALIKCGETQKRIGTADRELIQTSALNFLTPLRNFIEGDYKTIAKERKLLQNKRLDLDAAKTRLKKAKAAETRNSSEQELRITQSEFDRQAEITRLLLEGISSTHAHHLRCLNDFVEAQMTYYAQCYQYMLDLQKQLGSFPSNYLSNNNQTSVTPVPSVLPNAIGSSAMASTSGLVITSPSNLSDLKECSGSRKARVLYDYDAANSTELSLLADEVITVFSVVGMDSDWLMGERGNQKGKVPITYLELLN

Compound: c1cn2cc(-c3ccc4cn[nH]c4c3)nc(Nc3ccc(N4CCOCC4)cc3)c2n1 [entospletinib]
Experiment: log2 fold change, soluble protein after heating vs DMSO (PISA); higher = thermal stabilisation; K562 cells, 10 uM, 30 min; active = over 0.2 and 3.5 SD of the protein, either way, in both replicates (recomputed)
Outline: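 Soluble protein was quantified by TMTpro 16plex LC-MS/MS after channel sums were equalised. It was obtained as the supernatant after 21,000xg for 90 min from pooled aliquots of K562 cells (2×10^6 cells/mL, 10 μM compound, 30 min) heated for 3 min across 48°C-58°C and extracted in PBS with 0.5% NP-40 at 4°C. Thermal stability values are relative to control samples and come from duplicates. They are given as log2 fold changes.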

log2 fold change, inactive:
SF3B2 (UniProt Q13435) -0.023
SIGMAR1 (UniProt Q99720) -0.067
SELENBP1 isoform 4 (UniProt Q13228) -0.01
SEPTIN10 isoform 2 (UniProt Q9P0V9) -0.01
SIRT5 (UniProt Q9NXA8) 0.016
SEPTIN6 (UniProt Q14141) 0.014
SERPINB8 (UniProt P50452) -0.029
SGTB (UniProt Q96EQ0) 0.027
SEC62 (UniProt Q99442) 0.037
SEL1L (UniProt Q9UBV2) 0.083
SEC61A2 (UniProt Q9H9S3) -0.007
SGMS1 (UniProt Q86VZ5) 0.024
SFSWAP isoform 2 (UniProt Q12872) -0.011
SEPTIN7 (UniProt Q16181) -0.045
SEC61A1 (UniProt P61619) 0.051
SHOC2 (UniProt Q9UQ13) 0.051
SERBP1 (UniProt Q8NC51) 0.063
SH3GLB1 isoform 2 (UniProt Q9Y371) 0.035

Pulled one by one from the entries so far:
log2 fold change, inactive:
SIRT5 (UniProt Q9NXA8) 0.016
SEPTIN10 isoform 2 (UniProt Q9P0V9) -0.01
